Measurements reported in patent US20250163006A1, “New Coolants, and Preparations Containing Same” (Symrise AG, priority 2022, published 2025).
Some of these results come from one statement about several compounds together.

Sequences of proteins named here, by UniProt entry; tags and fusion partners are left off.
UniProt Q7Z2W7, whole entry: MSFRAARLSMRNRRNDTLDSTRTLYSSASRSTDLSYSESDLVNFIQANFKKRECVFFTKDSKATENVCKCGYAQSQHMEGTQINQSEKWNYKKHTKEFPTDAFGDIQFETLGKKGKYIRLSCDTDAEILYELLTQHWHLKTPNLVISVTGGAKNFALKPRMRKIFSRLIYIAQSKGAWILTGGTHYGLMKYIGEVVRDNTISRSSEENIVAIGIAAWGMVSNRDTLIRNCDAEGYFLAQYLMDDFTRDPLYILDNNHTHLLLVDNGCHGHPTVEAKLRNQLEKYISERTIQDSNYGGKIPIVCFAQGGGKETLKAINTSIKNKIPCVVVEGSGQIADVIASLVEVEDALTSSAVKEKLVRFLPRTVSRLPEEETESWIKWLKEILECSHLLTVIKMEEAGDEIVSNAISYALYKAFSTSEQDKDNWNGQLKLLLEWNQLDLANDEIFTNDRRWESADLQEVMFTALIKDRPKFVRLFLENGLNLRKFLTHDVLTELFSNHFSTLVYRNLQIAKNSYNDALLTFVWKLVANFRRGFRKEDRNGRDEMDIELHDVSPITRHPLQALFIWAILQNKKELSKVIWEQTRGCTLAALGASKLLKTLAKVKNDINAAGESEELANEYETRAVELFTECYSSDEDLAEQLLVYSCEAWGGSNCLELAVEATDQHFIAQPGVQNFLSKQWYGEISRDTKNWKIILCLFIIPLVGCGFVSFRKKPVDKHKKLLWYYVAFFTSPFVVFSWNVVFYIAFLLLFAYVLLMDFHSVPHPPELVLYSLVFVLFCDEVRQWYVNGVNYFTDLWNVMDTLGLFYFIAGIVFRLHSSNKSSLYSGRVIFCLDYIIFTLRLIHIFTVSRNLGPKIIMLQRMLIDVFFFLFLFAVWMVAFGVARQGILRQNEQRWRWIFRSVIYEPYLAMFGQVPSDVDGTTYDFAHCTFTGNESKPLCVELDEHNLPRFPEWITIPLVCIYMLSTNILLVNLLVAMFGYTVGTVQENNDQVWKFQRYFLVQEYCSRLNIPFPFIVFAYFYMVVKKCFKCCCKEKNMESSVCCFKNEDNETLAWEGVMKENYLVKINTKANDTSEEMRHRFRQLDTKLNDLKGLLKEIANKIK

Target: T1, human TRPM8 receptor (Homo sapiens, UniProt Q7Z2W7)
T1 construct: expressed in transfected cells; host or cells: HEK293, stably transfected, tetracycline-inducible expression
Assay: Assay on TRPM8 modulators: Ca2+-sensitive dye (Fluo-4) fluorescence in HEK293-TRPM8 test cells
Assay type: cell-based
Conditions: TRPM8 activation, 6 to 10 concentrations, logistic curve fitting
From the text: The starting point for cloning the human TRPM8 receptor is an LnCaP cDNA bank. This is commercially available (e.g. BioChain, Hayward, USA) or can be produced from the andro gene-sensitive human prostate adenocarcinoma cell line LnCaP (e.g. ATCC, CRL1740 or ECACC, 891 1021 1) using standard kits.
The coding TRPM8 sequence (see e.g. http://www. ncbi.nlm.nih.gov/entrez/viewer.fcgi?db=nuccore&id=109689694) can be PCR-amplified and cloned using standard methods. The human TRPM8 gene isolated in this way was used to produce the plasmid plnd_M8. Alternatively, the TRPM8 gene can also be produced synthetically. […]
A test similar to the test already described in the literature by Behrendt H. J. et al, Br. J. Pharmacol. 141, 2004, 737-745, is performed. The agonization or antagonization of the receptor can be quantified using a Ca^2+-sensitive dye (e.g. FURA, Fluo-4 etc.). Agonists alone cause an increase in the Ca^2+ signal; antagonists cause a reduction in the Ca^2+ signal in the presence of e.g. menthol (detected in each case using the Fluo-4 dye, which has different fluorescence properties due to Ca^2+ ions). […]
The test substances are used in triplicates in concentrations of 0.1-200 μM in the assay. Normally, the compounds are kept ready in DMSO solutions and diluted down to a maximum DMSO concentration of 2% for the assay. […]

Compound	EC50 [nM]
CNC(=O)C(C)Sc1nc(-c2ccccc2)c(-c2ccccc2)o1 (centres unmarked) [Compound A-02, 2-(4,5-diphenyloxazol-2-yl)sulfanyl-N-methyl-propanamide]	≤ 1000
CNC(=O)C(C)Sc1nc(-c2ccccc2)c(-c2ccccc2)o1 (centres unmarked) [Compound A-01, 3-carboxy-3,5-dihydroxy-5-OXO-pentanoate;2-(4,5-diphenyloxazol-2-yl)sulfanylpropa noyl-methyl-ammonium]	≤ 1000
